The numbers were not newly measured in patent US20130331690A1, “VASCULAR IMAGING AGENTS” (GE HEALTHCARE AS, priority 2010, published 2013), which cites them from elsewhere.

The structures appear in SMILES notation.

For this data set the following is noted: healthy subjects; cited from earlier work.

For the molecule `CC1(C)C(/C=C/C=C/C=C/C=C2\N(CCCCS(=O)(=O)O)c3ccc4ccccc4c3C2(C)C)=[N+](CCCCS(=O)(=O)[O-])c2ccc3ccccc3c21` [ICG, indocyanine green], the “Blood clearance half-life in vivo” value was 3.9 ± 0.9 min.
